Source: article doi:10.1101/189324
Results are given in words; binding and its absence hold for the method and conditions named. Binding can be weak; no strength is given. Sequences can lack the tags named with a protein.

Legend:
[1] = biological target: T1, Recombinant His-tagged secretagogin (SCGN) (UniProt Q91WD9); assay: other fluorescence titration
T1 sequence: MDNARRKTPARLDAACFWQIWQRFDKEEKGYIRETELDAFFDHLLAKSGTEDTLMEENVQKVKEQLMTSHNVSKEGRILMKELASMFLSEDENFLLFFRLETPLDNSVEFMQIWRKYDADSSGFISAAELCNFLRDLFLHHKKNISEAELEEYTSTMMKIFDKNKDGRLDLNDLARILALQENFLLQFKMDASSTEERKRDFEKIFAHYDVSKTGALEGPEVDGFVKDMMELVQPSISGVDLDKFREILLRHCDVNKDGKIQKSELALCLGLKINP

[2] = biological target: T1, Recombinant His-tagged secretagogin (SCGN); assay: near-UV circular dichroism
[3] = biological target: T1, Recombinant His-tagged secretagogin (SCGN); assay: other fluorescence titration; remark: listed apart in the source
[4] = biological target: T1, Recombinant His-tagged secretagogin (SCGN); assay: near-UV circular dichroism; remark: listed apart in the source
[5] = biological target: Insulin (purified, used in vitro); assay: far-Western, overlay or dot blot
[6] = biological target: Insulin (purified, used in vitro); assay: far-Western, overlay or dot blot; remark: listed apart in the source
[7] = biological target: Insulin (purified, used in vitro); assay: SEC

Measured: binding

Insulin (purified, used in vitro)
binds: [1] | [2] | [3] | [4]

B1: Recombinant His-tagged secretagogin (SCGN) (protein, UniProt Q91WD9 1-276)
chain: MDNARRKTPARLDAACFWQIWQRFDKEEKGYIRETELDAFFDHLLAKSGTEDTLMEENVQKVKEQLMTSHNVSKEGRILMKELASMFLSEDENFLLFFRLETPLDNSVEFMQIWRKYDADSSGFISAAELCNFLRDLFLHHKKNISEAELEEYTSTMMKIFDKNKDGRLDLNDLARILALQENFLLQFKMDASSTEERKRDFEKIFAHYDVSKTGALEGPEVDGFVKDMMELVQPSISGVDLDKFREILLRHCDVNKDGKIQKSELALCLGLKINP
binds: [5] | [6] | [7]
